PubChem BioAssay AID1508588 – Peter MacCallum Cancer Centre | 2020
Purpose: 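Knock-downs boosting vemurafenib effects on melanoma cell growth or lactate release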 (primary screen). Cells: human WM266.4 melanoma cells (BRAF V600 mutant). Reagents: siRNA pool against human genes, 40 nM. Timing: 96 h from transfection to read-out. Conditions: vemurafenib 300 nM (about IC25), added 48 h after transfection, for 48 h; comparison arm got DMSO vehicle only. Read-out: 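Cell gain (DAPI nuclei at end minus before drug, mean of two replicates) and medium lactate by absorbance per cell, both as ratio to non-targeting siRNA, also grouped into fold-change classes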. Reading the numbers: cell gain with vemurafenib: higher = more cell gain than with non-targeting siRNA; lactate per cell with vemurafenib: higher = more lactate made per cell. Call rule: 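a knock-down counts as enhancing when its fold-change classes with vehicle and with vemurafenib, taken together, show a stronger drug effect on cell gain or lactate per cell; exact class pairs not stated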. Meaning of the calls: active = enhances vemurafenib effect; inactive = no enhancement seen.
This is one part, drawn at random, of about 18,000 deposited reagents. 790 of them (4.4%) count as active. 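Calls rest on a combination of fold-change classes in drug and vehicle arms, not all shown here.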 A reagent listed more than once was tested more than once; the source does not tell the runs apart.

gene,cell gain with vemurafenib,lactate per cell with vemurafenib,activity call
MSMO1 (methylsterol monooxygenase 1),0.97,0.64,inactive
CNOT8 (CCR4-NOT transcription complex subunit 8),1.14,0.64,inactive
ANAPC1 (anaphase promoting complex subunit 1),0.53,0.4,active
CABYR (calcium binding tyrosine phosphorylation regulated),0.46,1.12,inactive
CDH2 (cadherin 2),0.52,1.12,inactive
UQCC3 (ubiquinol-cytochrome c reductase complex assembly factor 3),0.89,0.84,inactive
POFUT4 (protein O-fucosyltransferase 4),-0.17,0.72,inactive
OGFOD3,0.29,1.99,inactive
PGRMC2 (progesterone receptor membrane component 2),0.75,0.94,inactive
TRMT1L (tRNA methyltransferase 1L),0.96,0.62,inactive
UBE2Q2 (ubiquitin conjugating enzyme E2 Q2),0.64,0.6,inactive
LIN7B (lin-7 cell polarity scaffold B),0.41,0.94,inactive
RTN4IP1 (reticulon 4 interacting protein 1),0.13,2.48,inactive
"PCDHGC4 (protocadherin gamma subfamily C, 4)",0.47,0.55,inactive
GPRC5C (G protein-coupled receptor class C group 5 member C),0.37,1.82,inactive
H4C8 (H4 clustered histone 8),0.62,2.17,inactive
CDC123 (cell division cycle 123),0.58,1.35,inactive
TRMT6 (tRNA methyltransferase 6 non-catalytic subunit),0.56,1.71,inactive
SYMPK (symplekin scaffold protein),0.8,0.6,inactive
ELP1 (elongator acetyltransferase complex subunit 1),0.59,0.96,inactive
OR1A1 (olfactory receptor family 1 subfamily A member 1),0.67,0.78,inactive
HOXC10 (homeobox C10),0.78,0.79,inactive
IMMT (inner membrane mitochondrial protein),0.96,0.18,active
PRKAB1 (protein kinase AMP-activated non-catalytic subunit beta 1),0.45,0.9,inactive
VWA2 (von Willebrand factor A domain containing 2),0.02,0.98,inactive
TRIM45 (tripartite motif containing 45),1.11,0.75,inactive
NAT1 (N-acetyltransferase 1),0.83,0.86,inactive
ADAMTS9 (ADAM metallopeptidase with thrombospondin type 1 motif 9),0.67,0.57,inactive
ACACB (acetyl-CoA carboxylase beta),0.99,1.39,inactive
MAFB (MAF bZIP transcription factor B),0.95,1.05,inactive
DNAJC30 (DnaJ heat shock protein family (Hsp40) member C30),-0.09,2.21,inactive
CCL4 (C-C motif chemokine ligand 4),0.26,1.28,inactive
BTG3 (BTG anti-proliferation factor 3),1.4,0.7,inactive
"ABL1 (ABL proto-oncogene 1, non-receptor tyrosine kinase)",0.61,1.06,inactive
RSPH3 (radial spoke head 3),0.72,0.62,inactive
DCTN2 (dynactin subunit 2),0.63,0.6,inactive
GAPVD1 (GTPase activating protein and VPS9 domains 1),1.12,0.8,inactive
NF1 (neurofibromin 1),1,0.76,inactive
SERHL (serine hydrolase like (pseudogene)),0.76,0.45,inactive
AMZ2 (archaelysin family metallopeptidase 2),1.39,0.58,inactive
UNC13C (unc-13 homolog C),0.93,0.2,inactive
DIP2A (DIP2 acetate--CoA ligase A),0.76,0.71,inactive
"H1-3 (H1.3 linker histone, cluster member)",1.21,0.44,inactive
NOX4 (NADPH oxidase 4),0.55,0.48,active
ZZEF1 (zinc finger ZZ-type and EF-hand domain containing 1),0.2,1.23,inactive
DAZ1 (deleted in azoospermia 1),0.53,0.7,inactive
DEFB105A (defensin beta 105A),0.43,0.92,inactive
STAG3L1 (STAG3 cohesin complex component like 1 (pseudogene)),0.48,0.87,inactive
COXFA4L3 (cytochrome c oxidase associated subunit FA4L3),-0.02,0.74,inactive
GADD45B (growth arrest and DNA damage inducible beta),1.38,0.72,inactive
OR51Q1 (olfactory receptor family 51 subfamily Q member 1),0.25,0.48,inactive
MRS2 (magnesium transporter MRS2),0.56,0.16,active
KIF18B (kinesin family member 18B),0.92,0.5,inactive
COLCA1 (colorectal cancer associated 1),0.94,0.7,inactive
SGO2 (shugoshin 2),0.69,0.6,inactive
SVIL (supervillin),0.5,0.7,active
"PFKFB2 (6-phosphofructo-2-kinase/fructose-2,6-biphosphatase 2)",0.53,1.29,inactive
"PFKFB2 (6-phosphofructo-2-kinase/fructose-2,6-biphosphatase 2)",0.43,1.62,inactive
RPL7A (ribosomal protein L7a),-0.12,3.06,inactive
CA3 (carbonic anhydrase 3),0.36,1.08,inactive
ING4 (inhibitor of growth family member 4),0.51,0.47,inactive
SLCO1B1,0.44,0.58,inactive
KCNK16 (potassium two pore domain channel subfamily K member 16),0.22,1.04,inactive
MINK1 (misshapen like kinase 1),0.41,1,inactive
SLC10A4,0.9,0.44,inactive
REV1 (REV1 DNA directed polymerase),0.89,0.38,inactive
FMO2 (flavin containing dimethylaniline monoxygenase 2),0.78,0.6,inactive
ADAM15 (ADAM metallopeptidase domain 15),0.8,1.12,inactive
STX7 (syntaxin 7),0.83,1.06,inactive
MAPK1IP1L,0.84,0.94,inactive
DSCAM (DS cell adhesion molecule),0.44,1.27,inactive
IFNA2 (interferon alpha 2),0.85,0.97,inactive
GPX8 (glutathione peroxidase 8 (putative)),0.57,1.72,inactive
AOC2 (amine oxidase copper containing 2),0.88,1.16,inactive
IL15RA (interleukin 15 receptor subunit alpha),0.51,1.34,inactive
IL3RA (interleukin 3 receptor subunit alpha),0.64,0.97,inactive
MOCS3 (molybdenum cofactor synthesis 3),0.78,0.96,inactive
LRRC47 (leucine rich repeat containing 47),0.57,0.34,inactive
MYL10 (myosin light chain 10),0.65,1.36,inactive
MSH5 (mutS homolog 5),0.26,1.35,inactive
SLC26A2,1.19,0.8,inactive
"PYGM (glycogen phosphorylase, muscle associated)",0.6,1.02,inactive
EMID1 (EMI domain containing 1),0.65,1,inactive
ZFP30 (ZFP30 zinc finger protein),0.52,0.63,inactive

9 entries from above, arranged by “cell gain with vemurafenib”, descending.
gene,cell gain with vemurafenib,lactate per cell with vemurafenib,activity call
GADD45B (growth arrest and DNA damage inducible beta),1.38,0.72,inactive
KIF18B (kinesin family member 18B),0.92,0.5,inactive
MRS2 (magnesium transporter MRS2),0.56,0.16,active
DAZ1 (deleted in azoospermia 1),0.53,0.7,inactive
STAG3L1 (STAG3 cohesin complex component like 1 (pseudogene)),0.48,0.87,inactive
DEFB105A (defensin beta 105A),0.43,0.92,inactive
OR51Q1 (olfactory receptor family 51 subfamily Q member 1),0.25,0.48,inactive
ZZEF1 (zinc finger ZZ-type and EF-hand domain containing 1),0.2,1.23,inactive
COXFA4L3 (cytochrome c oxidase associated subunit FA4L3),-0.02,0.74,inactive
